# Primary screen of a compound library

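Whole-parasite assay of Trypanosoma brucei over 72 hours; the read-out is not stated. Concentration: 30 µM. Direction is inferred from retests: higher values go with stronger inhibition. Values scatter widely below zero; nearly all retest evidence comes from the higher of the two concentrations used. About 64,000 compounds were tested under these conditions; 1.5% (about 940) showed 50% or more at least once.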

Each number is a percent effect as filed. The controls that fix the scale are not given in the record; negative values are as filed. This is an unselected part of the compounds tested.

Compound: Cc1c(C(C)NC(=O)C2CCCC2)cnn1C (stereo not shown)
effect: -62.27

Compound: Cl.Cn1cc(C(=O)NCc2cncc3c2CCN(S(C)(=O)=O)C3)cn1
effect: -23.71

Compound: [H][C@@]12CCCN[C@]1([H])CN(C(=O)NCC(C)C)C2
effect: -2.129

Compound: COc1c(C2CCCN2Cc2cc(C)no2)c(C)nn1C (stereo not shown)
effect: -2.261

Compound: CCCc1nc(NCC(=O)N2CCOCC2)c2c(n1)c(C)nn2CC
effect: -24.9

Compound: CCS(=O)(=O)N(C)C(=O)c1cc(C)n(-c2cccc(OC)c2)c1C
effect: 15.73

Compound: O=C(c1cnc(COc2ccccc2)nc1O)N1CCOCC1
effect: 38.43

Compound: O=C(O)C(F)(F)F.[H][C@@]12CNC(=O)[C@@H](C)[C@]1([H])CN(Cc1ccc3c(c1)OCO3)C2
effect: -39.22

Compound: Cc1nccn1-c1cccc(C2CCCN(C(=O)c3cc[nH]n3)C2)n1 (stereo not shown)
effect: 2.724

Compound: CC(C)Cc1noc(CN2CCOC(Cn3cncn3)C2)n1 (stereo not shown)
effect: 4.915

Compound: Cc1ccc2c(c1)C(NC1CC1)CC21CCNCC1.Cl (stereo not shown)
effect: 51.53

Compound: CC(C)(C)C(=O)N1CCCC1c1cc(CO)[nH]n1 (stereo not shown)
effect: -12.99

Compound: Cc1cc(N2CCN(CCO)CC2)nc(-c2ccncc2)n1
effect: -3.463

Compound: Cc1cnn(C2CCCN(C(=O)c3cn(-c4ccccc4)nc3C)C2)c1 (stereo not shown)
effect: -2.893

Compound: Cc1cc(C)nc(N2CC[C@H](Oc3ccccc3F)[C@@H](O)CC2)n1
effect: -2.702

Compound: CCS(=O)(=O)N1CCCC2(CCCN2C(=O)c2cscn2)C1 (stereo not shown)
effect: -28.75

Compound: CC(NC(=O)Nc1cccnc1N1CCOCC1)c1ccccc1 (stereo not shown)
effect: -20.04

Compound: O=C(CN1CCC(c2cc(=O)n3c(n2)CCCCC3)C1)N1CCCCC1.O=C(O)CC(O)(CC(=O)O)C(=O)O (stereo not shown)
effect: -90.53

Compound: CN(CC1(CO)CC1)C(=O)C1CCC(=O)N(Cc2ccc(Cl)cc2)C1 (stereo not shown)
effect: -19.7

Compound: CN(CC(=O)NCCC#N)C(c1ccccc1)c1ccccc1
effect: -41.96

Compound: Cc1ncc(CN(C)CC(O)c2ccc(OC(F)(F)F)cc2)s1 (stereo not shown)
effect: -2.929

Compound: CCc1csc(C2CCCN(C(=O)c3cnn(CC)c3)C2)n1 (stereo not shown)
effect: -19.15

Compound: CN(Cc1csc(-c2ccccc2)n1)C(=O)CCn1ccccc1=O
effect: -17.42

Compound: Cc1cc(C2CCCN2c2ncc(C(N)=O)cc2Cl)no1 (stereo not shown)
effect: -42.47

Compound: Cn1ccc(C(=O)N2CCOC(c3ccccc3)C2)cc1=O (stereo not shown)
effect: -21.4

Compound: CCNC(=O)C1CN(Cc2c(-c3cc(C)on3)nn(C)c2Cl)CCO1 (stereo not shown)
effect: -27

Compound: Cc1ccc(-c2cc(CNC(=O)NC3CCCCNC3=O)on2)cc1 (stereo not shown)
effect: -4.735

Compound: CN1CCN(C[C@@H]2CN(C(=O)c3ccccc3C#N)C[C@@H]2CO)CC1
effect: -1.73

Compound: Nc1cc(C(=O)N2CCCC3(C=Cc4ccccc4O3)CC2)ccn1 (stereo not shown)
effect: 31.44

Compound: Cc1cnc(-c2nc(NC3CC3)ncc2-c2onc(C)c2C)cn1
effect: -8.64

Compound: CNc1ncc(CN(C)C(=O)c2ccc(C3CCCO3)s2)cn1 (stereo not shown)
effect: -14.11

Compound: N#Cc1cc(C#N)c(SCCC(=O)Nc2ccc(F)cc2)nc1N
effect: -5.034

Compound: Cl.FC(F)(F)c1ccc(-c2cnc(C3CCCN3)cn2)cc1 (stereo not shown)
effect: -0.6385

Compound: Cc1cnn(CC2CCCN2CC(=O)Nc2nc(C)cs2)c1 (stereo not shown)
effect: 11.7

Compound: c1ccc(-c2nc(CN3CCn4c(nnc4C4CC4)C3)no2)cc1
effect: 5.395

Compound: CS(=O)(=O)Cc1nc(CN2CCCc3sccc3C2)cs1
effect: 11.08

Compound: CCn1cnnc1CNC(=O)N(C)Cc1cccc(Cl)c1Cl
effect: -68.14

Compound: O=C(NC[C@H]1OC[C@@H](NC2COC2)[C@@H]1O)c1cccs1
effect: -5.553

Compound: O=C(O)[C@@H]1CN(C(=O)c2ccc(O)cc2)C[C@H]1c1cccc(F)c1
effect: -36

Compound: CC(NC(=O)c1ccc(Cl)cc1)c1nnc(SCC(N)=O)n1C (stereo not shown)
effect: -8.777

Compound: [H][C@@]12CCC(=O)N(CCc3c[nH]cn3)[C@]1([H])CCN(Cc1cc(C)c(C)o1)C2
effect: -35.02

Compound: O=C(C1CCCO1)N1CCC(O)(Cn2ccc3ccncc32)CC1 (stereo not shown)
effect: -34.91

Compound: O=C(NCC(F)F)c1ccc(S(=O)(=O)NCCc2c[nH]cn2)cc1
effect: 9.729

Compound: CSc1ccc(C(=O)N2CC(=O)N(Cc3ccccc3)CC(O)C2)cc1 (stereo not shown)
effect: -44.72

Compound: Cc1cc(CS(=O)(=O)NC2CCCc3ccccc32)on1 (stereo not shown)
effect: -21.82

Compound: N#Cc1ccc(S(=O)(=O)Nc2ccc(N3CCOCC3)cn2)cc1
effect: -13

Compound: O=C(O)C(F)(F)F.[H][C@@]12CO[C@H](CNS(C)(=O)=O)[C@]1([H])CCN(Cc1ccsc1)C2
effect: -31.49

Compound: Cc1ccc(CNC2CCN(CCc3ccncc3)CC2)s1
effect: 8.09

Compound: O=C(O)C(F)(F)F.[H][C@@]12CCN(Cc3ccccc3F)C[C@]1(C(=O)N1CCOCC1)CCO2
effect: -20.25

Compound: CCn1c(C)nc2cc(NC(=O)CC3CCCCO3)ccc21 (stereo not shown)
effect: -17.44

Compound: CCCc1cc(C(=O)Nc2nc(SC)ns2)n(C)n1
effect: -1.101

Compound: OCCNC1CCc2cc3c(cc21)OCCO3 (stereo not shown)
effect: -0.5388

Compound: Cc1ccc(NCc2nc3n(n2)CCCCC3)c(C)c1
effect: -32.08

Compound: CCc1cc(NC(=O)C2CCCN(C(=O)c3ccncc3)C2)[nH]n1 (stereo not shown)
effect: -15.82

Compound: O=C(CCn1cnnn1)N1CCCC(CO)(CCCc2ccccc2)C1 (stereo not shown)
effect: -46.68

Compound: Fc1ccc(-n2cccn2)c(CN2CCCCC2CCn2ccnc2)c1 (stereo not shown)
effect: -13.73

Compound: Cc1cc(CN(C)CC(c2cccs2)N2CCOCC2)on1 (stereo not shown)
effect: -13.18

Compound: CSc1ccc(S(=O)(=O)N2CCCCC2CCNC(C)=O)cc1 (stereo not shown)
effect: 5.079

Compound: Cc1noc(CS(=O)(=O)c2cc(F)ccc2F)n1
effect: -4.369

Compound: CC1CN(C)CCN1C(=O)COc1cccc(Oc2ccccn2)c1 (stereo not shown)
effect: -40.44

The first 7 entries again:

Cc1c(C(C)NC(=O)C2CCCC2)cnn1C (stereo not shown) gave -62.27%.
Cl.Cn1cc(C(=O)NCc2cncc3c2CCN(S(C)(=O)=O)C3)cn1 gave -23.71%.
[H][C@@]12CCCN[C@]1([H])CN(C(=O)NCC(C)C)C2 gave -2.129%.
COc1c(C2CCCN2Cc2cc(C)no2)c(C)nn1C (stereo not shown) gave -2.261%.
CCCc1nc(NCC(=O)N2CCOCC2)c2c(n1)c(C)nn2CC gave -24.9%.
CCS(=O)(=O)N(C)C(=O)c1cc(C)n(-c2cccc(OC)c2)c1C gave 15.73%.
O=C(c1cnc(COc2ccccc2)nc1O)N1CCOCC1 gave 38.43%.

The values are deposited in ChEMBL (CHEMBL3988442, “University of Dundee, Small-Polar-MMV Screening Library” (2021)).